Some results come without the dose or concentration used.
Test system: human mammary carcinoma MX-1 cells
Experiment: XTT/CCK-8 drug combination assay against MX-1 cell growth in vitro
Type: cell-based
Settings: Table 4A; 72 hrs exposure

With C/C(=C\c1csc(C)n1)[C@@H]1C/C=C(/C(F)(F)F)C/C=C/[C@H](C)[C@H](O)[C@@H](C)C(=O)C(C)(C)[C@@H](O)CC(=O)O1 [Fludelone, reference compound] as the compound, how does the “m (shape of dose-effect curve)” value read?
The value was 0.619.

For C=C[C@@H](O)C#CC#CC[C@@H](O)[C@H](O)CCCCCCC [panaxytriol], which “m (shape of dose-effect curve)” value is on record?
The value was 2.600.
